What all share (type): cell-based
For assay [1], the system named is 22RV1. In words: Cell viability, MTT assay, 22RV1. The note with it: Homo sapiens, 22RV1 (Prostate), 96 hr. On the procedure: (§1) To measure cell viability, cell titer glow (CTG, Promega CellTiter-Glo 2.0 Assay) and MTT assays (SigmaAldrich, Cell Proliferation Kit I) were performed. Briefly, cells were serum starved overnight prior to seeding in 96-well plates. Following 24 h incubation, cells were treated with increasing concentrations of JGJ compounds for 96 hr. At assay read-out, CellTiter-Glo reagent was added and luminescence was measured after 10-minutes incubation at room temperature. For the MTT assay, MTT labeling reagent was added and incubated for 4 h. Subsequently, medium was removed and 50 μL DMSO was added to solubilize the crystals, and absorbance was measured at 570 nm. Cell viability was calculated as (Sample-Background)/(Control-Background). Current standard of care drugs, Enzalutamide, Palbociclib and Cetuximab were used as comparative controls.
(In general: Tetrazolium dyes change colour on reduction, which living cells bring about.)

Assay [2] deals with 22RV1. Nature of the assay: Cell viability, CellTiter-Glo (CTG), 22RV1. The note with it: Homo sapiens, 22RV1 (Prostate), 96 hr. On the procedure:
as §1
In general terms: In ATP-based viability assays light output follows the ATP content of the culture.

A further assay has as its system LNCaP. In words: Cell viability, MTT assay, LNCaP. Conditions: Homo sapiens, LNCaP (Prostate). As to the method: as §1

The values that follow come from patent US20230059009A1, “INHIBITORS OF LIN28 AND METHODS OF USE THEREOF” (The Regents of the University of California, priority 2019, published 2023).

Consider `CNC(=O)c1ccc(N2C(=S)N(c3ccc(C#N)c(C(F)(F)F)c3)C(=O)C2(C)C)cc1F` [Enzalutamide, reference compound], for which the values for the half-inhibitory concentration (IC50) in the assay on 22RV1 [1], in the assay on 22RV1 [2] and in the assay on LNCaP were 53 µM, 88 µM and 5 µM, respectively.

A word on the IC50: it is the concentration needed to halve the response being measured. Higher therefore signals weaker potency.
